Test results: PubChem BioAssay AID212 (DTP/NCI, 2004)
The list does not hold the whole screen: its compounds were picked by chemical class. Not every dose and run of a compound is shown. T/C is the treated group as % of the vehicle group. Schedules are NCI's codes, taken here to give the interval after Q, in days (D) or hours (H), and the number of doses after X. Some T/C values are followed by the survivors on the day toxicity was checked; where neither a count nor a note follows, no animal had died by that day. Some entries hold several experiments; the values are given in rising order. Some doses have a count of surviving animals in place of a T/C: the source holds a T/C of zero for them, seemingly a mark for toxic or unscored doses. Survivors were counted at the toxicity check; its day is shown where the source gives one, and later deaths do not show. Some complexes appear as separate parts, the way the source draws them; their charges need not add up.

System: BDF1 mice, colon carcinoma 38 sc, T/C %
Assay: NCI In Vivo Anticancer Drug Screen. Data for tumor model Colon Carcinoma 38 (subcutaneous) in B6D2F1 (BDF1) mice
Settings: T/C endpoint: median tumor weight (est.), higher T/C = larger tumour
Method: The antitumor activity of compounds was measured in mice bearing transplantable tumors. Survival or tumor size were measured and the results are expressed as the measurement made in the treated group (T) divided by the measurement made in the vehicle treated control group (C). The tumor model used in this assay is Colon Carcinoma 38 (subcutaneous) in B6D2F1 (BDF1) mice

[1] = dose: 12.5 mg/kg/injection, schedule: Q07DX002 (ip), vehicle: Klucel (hydroxypropylcellulose) (HPC), evaluated on day 20
[2] = dose: 25.0 mg/kg/injection, schedule: Q07DX002 (ip), vehicle: Klucel (hydroxypropylcellulose) (HPC), evaluated on day 20
[3] = dose: 50.0 mg/kg/injection, schedule: Q07DX002 (ip), vehicle: Klucel (hydroxypropylcellulose) (HPC), evaluated on day 20
[4] = dose: 100.0 mg/kg/injection, schedule: Q07DX002 (ip), vehicle: Klucel (hydroxypropylcellulose) (HPC), evaluated on day 20
[5] = dose: 200.0 mg/kg/injection, schedule: Q07DX002 (ip), vehicle: Klucel (hydroxypropylcellulose) (HPC), evaluated on day 20
[6] = dose: 400.0 mg/kg/injection, schedule: Q07DX002 (ip), vehicle: Klucel (hydroxypropylcellulose) (HPC), evaluated on day 20
[7] = dose: 12.5 mg/kg/injection, schedule: Q07DX002 (ip), vehicle: saline with Tween-80, evaluated on day 20
[8] = dose: 25.0 mg/kg/injection, schedule: Q07DX002 (ip), vehicle: saline with Tween-80, evaluated on day 20
[9] = dose: 50.0 mg/kg/injection, schedule: Q07DX002 (ip), vehicle: saline with Tween-80, evaluated on day 20
[10] = dose: 100.0 mg/kg/injection, schedule: Q07DX002 (ip), vehicle: saline with Tween-80, evaluated on day 20

Structure (SMILES): CC(=O)C1=CCCC2CCC1N2 (stereo not drawn)
- T/C (dose: 200.0 micrograms/kg/injection, schedule: Q07DX002 (ip), vehicle: saline + alcohol, evaluated on day 20): 70 % of control
- T/C (dose: 400.0 micrograms/kg/injection, schedule: Q07DX002 (ip), vehicle: saline + alcohol, evaluated on day 20): 46 % of control
- T/C (dose: 800.0 micrograms/kg/injection, schedule: Q07DX002 (ip), vehicle: saline + alcohol, evaluated on day 20): 59 % of control

Structure (SMILES): ClP1(Cl)=NP(Cl)(Cl)=NP(Cl)(Cl)=NP(Cl)(Cl)=N1
- T/C [1]: 117 and 147 % of control
- T/C [2]: 88 and 107 % of control
- T/C [3]: 92 and 119 % of control
- T/C [4]: 98 and 129 % of control
- T/C [5]: 85 and 114 % of control
- T/C [6]: 92 [9 of 10 alive on day 20] and 99 % of control

Structure (SMILES): [Au].[C-]#N.[C-]#N
- T/C (dose: 0.62 mg/kg/injection, schedule: Q07DX002 (ip), vehicle: saline, evaluated on day 20): 79 % of control
- T/C (dose: 1.25 mg/kg/injection, schedule: Q07DX002 (ip), vehicle: saline, evaluated on day 20): 75 % of control
- T/C (dose: 2.5 mg/kg/injection, schedule: Q07DX002 (ip), vehicle: saline, evaluated on day 20): 78 % of control
- T/C (dose: 5.0 mg/kg/injection, schedule: Q07DX002 (ip), vehicle: saline, evaluated on day 20): 106 % of control
- T/C (dose: 10.0 mg/kg/injection, schedule: Q07DX002 (ip), vehicle: saline, evaluated on day 20): 74 % of control
- survivor count (dose: 20.0 mg/kg/injection, schedule: Q07DX002 (ip), vehicle: saline): 0 of 10 on day 20

Structure (SMILES): CC(=O)OC(SC(OC(C)=O)C(Cl)(Cl)Cl)C(Cl)(Cl)Cl (stereo not drawn)
- T/C (dose: 6.25 mg/kg/injection, schedule: Q07DX003 (ip), vehicle: saline with Tween-80, evaluated on day 20): 140 % of control
- T/C [1]: 121 % of control [9 of 10 alive]
- T/C (dose: 12.5 mg/kg/injection, schedule: Q07DX003 (ip), vehicle: saline with Tween-80, evaluated on day 20): 56 % of control
- T/C (dose: 25.0 mg/kg/injection, schedule: Q07DX003 (ip), vehicle: saline with Tween-80, evaluated on day 20): 58 % of control
- T/C [3]: 112 % of control [9 of 10 alive]
- T/C (dose: 50.0 mg/kg/injection, schedule: Q07DX003 (ip), vehicle: saline with Tween-80, evaluated on day 20): 117 % of control
- T/C [4]: 94 % of control [8 of 10 alive]
- T/C (dose: 100.0 mg/kg/injection, schedule: Q07DX003 (ip), vehicle: saline with Tween-80, evaluated on day 20): 84 % of control
- T/C [5]: 95 % of control [9 of 10 alive]
- T/C (dose: 200.0 mg/kg/injection, schedule: Q07DX003 (ip), vehicle: saline with Tween-80, evaluated on day 20): 80 % of control
- T/C [6]: 128 % of control [7 of 10 alive]

Structure (SMILES): CCCCc1ccc(N(CCCl)CCCl)cc1
- T/C [3]: 95 % of control [9 of 10 alive on day 20]
- T/C [4]: 60 % of control
- T/C [5]: 60 % of control
- T/C [6]: 44 % of control [9 of 10 alive on day 20]
- survivor count (dose: 800.0 mg/kg/injection, schedule: Q07DX002 (ip), vehicle: Klucel (hydroxypropylcellulose) (HPC)): 0 of 10 on day 20

Structure (SMILES): NC(=O)Nc1ccc(N(CCCl)CCCl)cc1
- T/C (dose: 10.0 mg/kg/injection, schedule: Q07DX002 (ip), vehicle: Klucel (hydroxypropylcellulose) (HPC), evaluated on day 20): 65 % of control [9 of 10 alive on day 20]
- T/C [1]: 155 % of control
- T/C (dose: 20.0 mg/kg/injection, schedule: Q07DX002 (ip), vehicle: Klucel (hydroxypropylcellulose) (HPC), evaluated on day 20): 56 % of control
- T/C [2]: 110 % of control
- T/C (dose: 40.0 mg/kg/injection, schedule: Q07DX002 (ip), vehicle: Klucel (hydroxypropylcellulose) (HPC), evaluated on day 20): 55 % of control
- T/C [3]: 104 % of control
- T/C (dose: 80.0 mg/kg/injection, schedule: Q07DX002 (ip), vehicle: Klucel (hydroxypropylcellulose) (HPC), evaluated on day 20): 41 % of control [9 of 10 alive on day 20]
- survivor count (dose: 160.0 mg/kg/injection, schedule: Q07DX002 (ip), vehicle: Klucel (hydroxypropylcellulose) (HPC)): 0 of 10 on day 20

Structure (SMILES): ICCN(CCI)c1cccc2ccccc12
- T/C (dose: 6.25 mg/kg/injection, schedule: Q07DX002 (ip), vehicle: Klucel (hydroxypropylcellulose) (HPC), evaluated on day 20): 56 % of control
- T/C [1]: 43 % of control [9 of 10 alive on day 20]
- survivor count (dose: 25.0 mg/kg/injection, schedule: Q07DX002 (ip), vehicle: Klucel (hydroxypropylcellulose) (HPC)): 6 of 10 on day 20
- survivor count (dose: 50.0 mg/kg/injection, schedule: Q07DX002 (ip), vehicle: Klucel (hydroxypropylcellulose) (HPC)): 3 of 10 on day 20
- survivor count (dose: 100.0 mg/kg/injection, schedule: Q07DX002 (ip), vehicle: Klucel (hydroxypropylcellulose) (HPC)): 0 of 10 on day 20
- survivor count (dose: 200.0 mg/kg/injection, schedule: Q07DX002 (ip), vehicle: Klucel (hydroxypropylcellulose) (HPC)): 0 of 10 on day 20

Structure (SMILES): Nc1cc([As]=O)ccc1O (stereo not drawn)
- T/C (dose: 6.25 mg/kg/injection, schedule: Q07DX002 (ip), vehicle: saline with Tween-80, evaluated on day 20): 59 and 84 % of control
- T/C [7]: 87 [9 of 10 alive on day 20] and 143 % of control
- T/C [8]: 50 and 115 % of control
- T/C [9]: 93 [8 of 10 alive on day 20] and 94 % of control
- T/C [10]: 84 % of control
- survivor count (dose: 100.0 mg/kg/injection, schedule: Q07DX002 (ip), vehicle: saline with Tween-80): 2 of 10 on day 20
- survivor count (dose: 200.0 mg/kg/injection, schedule: Q07DX002 (ip), vehicle: saline with Tween-80): 0 of 10 on day 20

Structure (SMILES): Cc1ccc(Sc2ccc([N+](=O)[O-])cc2[N+](=O)[O-])c([N+](=O)[O-])c1
- T/C (dose: 25.0 mg/kg/injection, schedule: Q07DX002 (ip), vehicle: saline, evaluated on day 21): 63 % of control
- T/C (dose: 50.0 mg/kg/injection, schedule: Q07DX002 (ip), vehicle: saline, evaluated on day 21): 90 % of control
- T/C (dose: 100.0 mg/kg/injection, schedule: Q07DX002 (ip), vehicle: saline, evaluated on day 21): 70 % of control
- T/C (dose: 200.0 mg/kg/injection, schedule: Q07DX002 (ip), vehicle: saline, evaluated on day 21): 70 % of control
- T/C (dose: 400.0 mg/kg/injection, schedule: Q07DX002 (ip), vehicle: saline, evaluated on day 21): 59 % of control
- T/C (dose: 800.0 mg/kg/injection, schedule: Q07DX002 (ip), vehicle: saline, evaluated on day 21): 110 % of control

Structure (SMILES): Nc1ccc(N(CCCl)CCCl)cc1
- T/C (dose: 1.0 mg/kg/injection, schedule: Q07DX002 (ip), vehicle: Klucel (hydroxypropylcellulose) (HPC), evaluated on day 20): 73 % of control
- T/C (dose: 2.0 mg/kg/injection, schedule: Q07DX002 (ip), vehicle: Klucel (hydroxypropylcellulose) (HPC), evaluated on day 20): 125 % of control
- T/C (dose: 4.0 mg/kg/injection, schedule: Q07DX002 (ip), vehicle: Klucel (hydroxypropylcellulose) (HPC), evaluated on day 20): 59 % of control
- survivor count (dose: 8.0 mg/kg/injection, schedule: Q07DX002 (ip), vehicle: Klucel (hydroxypropylcellulose) (HPC)): 6 of 10 on day 20
- survivor count (dose: 16.0 mg/kg/injection, schedule: Q07DX002 (ip), vehicle: Klucel (hydroxypropylcellulose) (HPC)): 0 of 10 on day 20

Structure (SMILES): COc1cc2c(c3oc4cccc(O)c4c(=O)c13)[C@@H]1C=CO[C@@H]1O2
- T/C [7]: 93 % of control
- T/C [8]: 90 % of control
- T/C [9]: 96 % of control [8 of 10 alive]
- T/C [10]: 96 % of control
- T/C (dose: 200.0 mg/kg/injection, schedule: Q07DX002 (ip), vehicle: saline with Tween-80, evaluated on day 20): 110 % of control
